At least one read-out could not be matched to a standard name with certainty.
Assay: Mouse pharmacokinetics study
Conditions: CD-1 mice, IP, 10 mg/kg, plasma

With `CC1(C)CN(C(=O)c2cn[nH]c2)Cc2c(C(=O)Nc3ccc(F)cc3)nn(Cc3ccc(C(F)(F)F)cc3)c21` [FSM-3-002, N-(4-Fluorophenyl)-7,7-dimethyl-5-(1H-pyrazole-4-carbonyl)-1-(4-(trifluoromethyl)benzyl)-4,5,6,7-tetrahydro-1H-pyrazolo[4,3-c]pyridine-3-carboxamide] the “time of Cmax” value was 1 h.

Reference: patent US20250092035A1, “ISOCITRATE DEHYDROGENASE 1 INHIBITORS AND METHODS OF USE THEREOF” (THE WISTAR INSTITUTE OF ANATOMY AND BIOLOGY, priority 2022, published 2025)
